The list shows a part of the results.
How the values were obtained:
Assay in all cases: log2 fold change, soluble protein after heating vs DMSO (PISA); higher = thermal stabilisation; K562 lysate, 10 uM; active = over 0.2 and 3.5 SD of the protein, either way, in both replicates (recomputed)
erlotinib = compound: C#Cc1cccc(Nc2ncnc3cc(OCCOC)c(OCCOC)cc23)c1 [erlotinib]
In short: (§1)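 K562 pellets were dounce-homogenised in PBS pH 7.4 containing 1 mM MgCl2, and the crude extract, at 1 mg/mL protein, was exposed to 10 μM compound for 30 min. Aliquots were heated for 3 min across 48°C-58°C, pooled, brought to 0.5% NP-40 at 4°C and spun at 21,000xg for 90 min, with the supernatant taken as soluble protein. TMTpro 16plex LC-MS/MS with equalised channel sums quantified that protein. Values are log-two fold changes in thermal stability relative to solvent controls, taken from duplicates.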

Sequences of proteins named here, by UniProt entry; tags and fusion partners are left off. A change or cut given only in a name is not applied to a line headed by its entry.
UniProt Q9H8G2: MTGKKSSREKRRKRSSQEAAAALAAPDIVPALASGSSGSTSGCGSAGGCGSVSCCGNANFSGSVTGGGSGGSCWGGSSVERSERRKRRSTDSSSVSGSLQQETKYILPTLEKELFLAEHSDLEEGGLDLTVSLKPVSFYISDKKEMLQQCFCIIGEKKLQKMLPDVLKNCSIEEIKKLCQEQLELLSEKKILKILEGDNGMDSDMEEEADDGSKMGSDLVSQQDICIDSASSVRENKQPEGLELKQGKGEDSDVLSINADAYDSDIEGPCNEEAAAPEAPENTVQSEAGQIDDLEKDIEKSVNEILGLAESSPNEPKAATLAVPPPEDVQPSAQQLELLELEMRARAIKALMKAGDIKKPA
UniProt A6NDU8: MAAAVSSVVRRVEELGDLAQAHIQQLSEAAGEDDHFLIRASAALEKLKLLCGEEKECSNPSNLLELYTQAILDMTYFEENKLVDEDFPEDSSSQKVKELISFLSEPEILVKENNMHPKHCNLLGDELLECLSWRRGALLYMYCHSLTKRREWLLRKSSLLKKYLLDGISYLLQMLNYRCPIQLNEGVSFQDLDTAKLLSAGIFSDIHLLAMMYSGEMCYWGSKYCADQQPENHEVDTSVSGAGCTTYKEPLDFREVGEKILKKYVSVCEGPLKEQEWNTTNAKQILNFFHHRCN
UniProt O43683: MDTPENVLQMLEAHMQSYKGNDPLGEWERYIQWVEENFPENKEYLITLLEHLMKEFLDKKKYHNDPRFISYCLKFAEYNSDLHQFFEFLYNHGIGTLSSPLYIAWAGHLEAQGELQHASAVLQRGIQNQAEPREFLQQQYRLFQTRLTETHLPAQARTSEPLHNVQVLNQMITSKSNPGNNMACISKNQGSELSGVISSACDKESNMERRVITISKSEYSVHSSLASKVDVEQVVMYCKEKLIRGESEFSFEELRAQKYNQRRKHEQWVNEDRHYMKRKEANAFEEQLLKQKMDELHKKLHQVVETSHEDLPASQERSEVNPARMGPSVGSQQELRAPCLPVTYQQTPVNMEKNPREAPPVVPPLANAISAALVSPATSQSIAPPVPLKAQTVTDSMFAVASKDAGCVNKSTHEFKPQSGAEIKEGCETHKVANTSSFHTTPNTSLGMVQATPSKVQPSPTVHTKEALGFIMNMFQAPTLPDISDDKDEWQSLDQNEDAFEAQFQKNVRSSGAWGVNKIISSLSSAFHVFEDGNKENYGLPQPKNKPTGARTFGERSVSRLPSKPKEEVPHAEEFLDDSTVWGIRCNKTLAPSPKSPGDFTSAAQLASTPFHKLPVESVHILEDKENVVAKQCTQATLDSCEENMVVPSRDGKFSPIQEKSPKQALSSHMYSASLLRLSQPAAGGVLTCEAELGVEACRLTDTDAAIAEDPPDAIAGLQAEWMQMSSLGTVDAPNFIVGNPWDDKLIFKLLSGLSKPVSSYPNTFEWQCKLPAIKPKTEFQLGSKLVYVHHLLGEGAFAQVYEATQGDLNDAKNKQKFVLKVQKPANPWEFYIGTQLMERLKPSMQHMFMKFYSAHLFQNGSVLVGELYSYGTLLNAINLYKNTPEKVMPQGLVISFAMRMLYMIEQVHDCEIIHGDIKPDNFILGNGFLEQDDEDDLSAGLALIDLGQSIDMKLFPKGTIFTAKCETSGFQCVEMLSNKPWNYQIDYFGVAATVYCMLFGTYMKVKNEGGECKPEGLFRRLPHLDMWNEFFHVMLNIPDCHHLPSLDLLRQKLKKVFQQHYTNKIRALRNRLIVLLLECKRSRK
UniProt P27797, whole entry, looked up: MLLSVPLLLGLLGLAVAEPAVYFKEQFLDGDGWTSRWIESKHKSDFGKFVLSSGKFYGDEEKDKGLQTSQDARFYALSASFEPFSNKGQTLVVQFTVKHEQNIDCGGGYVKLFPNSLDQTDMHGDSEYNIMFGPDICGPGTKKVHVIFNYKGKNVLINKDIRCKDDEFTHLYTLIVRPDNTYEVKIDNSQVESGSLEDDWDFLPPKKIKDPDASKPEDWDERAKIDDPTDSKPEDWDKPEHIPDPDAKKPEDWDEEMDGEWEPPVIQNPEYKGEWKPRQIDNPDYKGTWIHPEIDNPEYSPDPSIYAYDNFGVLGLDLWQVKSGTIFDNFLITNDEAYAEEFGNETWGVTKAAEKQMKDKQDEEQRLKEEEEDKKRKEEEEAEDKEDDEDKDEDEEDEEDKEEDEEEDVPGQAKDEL
UniProt Q13895: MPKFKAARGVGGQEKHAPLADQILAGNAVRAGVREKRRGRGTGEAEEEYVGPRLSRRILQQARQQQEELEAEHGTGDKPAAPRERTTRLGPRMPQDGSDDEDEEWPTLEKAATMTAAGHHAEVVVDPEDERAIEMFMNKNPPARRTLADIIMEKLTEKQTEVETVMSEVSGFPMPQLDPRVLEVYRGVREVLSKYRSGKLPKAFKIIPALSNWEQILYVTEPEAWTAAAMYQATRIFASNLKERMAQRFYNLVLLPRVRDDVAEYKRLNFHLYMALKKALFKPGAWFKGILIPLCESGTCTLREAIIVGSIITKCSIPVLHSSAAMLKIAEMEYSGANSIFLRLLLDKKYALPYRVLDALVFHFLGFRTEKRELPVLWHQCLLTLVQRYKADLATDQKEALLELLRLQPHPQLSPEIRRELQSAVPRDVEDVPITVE
UniProt P01024, whole entry, looked up: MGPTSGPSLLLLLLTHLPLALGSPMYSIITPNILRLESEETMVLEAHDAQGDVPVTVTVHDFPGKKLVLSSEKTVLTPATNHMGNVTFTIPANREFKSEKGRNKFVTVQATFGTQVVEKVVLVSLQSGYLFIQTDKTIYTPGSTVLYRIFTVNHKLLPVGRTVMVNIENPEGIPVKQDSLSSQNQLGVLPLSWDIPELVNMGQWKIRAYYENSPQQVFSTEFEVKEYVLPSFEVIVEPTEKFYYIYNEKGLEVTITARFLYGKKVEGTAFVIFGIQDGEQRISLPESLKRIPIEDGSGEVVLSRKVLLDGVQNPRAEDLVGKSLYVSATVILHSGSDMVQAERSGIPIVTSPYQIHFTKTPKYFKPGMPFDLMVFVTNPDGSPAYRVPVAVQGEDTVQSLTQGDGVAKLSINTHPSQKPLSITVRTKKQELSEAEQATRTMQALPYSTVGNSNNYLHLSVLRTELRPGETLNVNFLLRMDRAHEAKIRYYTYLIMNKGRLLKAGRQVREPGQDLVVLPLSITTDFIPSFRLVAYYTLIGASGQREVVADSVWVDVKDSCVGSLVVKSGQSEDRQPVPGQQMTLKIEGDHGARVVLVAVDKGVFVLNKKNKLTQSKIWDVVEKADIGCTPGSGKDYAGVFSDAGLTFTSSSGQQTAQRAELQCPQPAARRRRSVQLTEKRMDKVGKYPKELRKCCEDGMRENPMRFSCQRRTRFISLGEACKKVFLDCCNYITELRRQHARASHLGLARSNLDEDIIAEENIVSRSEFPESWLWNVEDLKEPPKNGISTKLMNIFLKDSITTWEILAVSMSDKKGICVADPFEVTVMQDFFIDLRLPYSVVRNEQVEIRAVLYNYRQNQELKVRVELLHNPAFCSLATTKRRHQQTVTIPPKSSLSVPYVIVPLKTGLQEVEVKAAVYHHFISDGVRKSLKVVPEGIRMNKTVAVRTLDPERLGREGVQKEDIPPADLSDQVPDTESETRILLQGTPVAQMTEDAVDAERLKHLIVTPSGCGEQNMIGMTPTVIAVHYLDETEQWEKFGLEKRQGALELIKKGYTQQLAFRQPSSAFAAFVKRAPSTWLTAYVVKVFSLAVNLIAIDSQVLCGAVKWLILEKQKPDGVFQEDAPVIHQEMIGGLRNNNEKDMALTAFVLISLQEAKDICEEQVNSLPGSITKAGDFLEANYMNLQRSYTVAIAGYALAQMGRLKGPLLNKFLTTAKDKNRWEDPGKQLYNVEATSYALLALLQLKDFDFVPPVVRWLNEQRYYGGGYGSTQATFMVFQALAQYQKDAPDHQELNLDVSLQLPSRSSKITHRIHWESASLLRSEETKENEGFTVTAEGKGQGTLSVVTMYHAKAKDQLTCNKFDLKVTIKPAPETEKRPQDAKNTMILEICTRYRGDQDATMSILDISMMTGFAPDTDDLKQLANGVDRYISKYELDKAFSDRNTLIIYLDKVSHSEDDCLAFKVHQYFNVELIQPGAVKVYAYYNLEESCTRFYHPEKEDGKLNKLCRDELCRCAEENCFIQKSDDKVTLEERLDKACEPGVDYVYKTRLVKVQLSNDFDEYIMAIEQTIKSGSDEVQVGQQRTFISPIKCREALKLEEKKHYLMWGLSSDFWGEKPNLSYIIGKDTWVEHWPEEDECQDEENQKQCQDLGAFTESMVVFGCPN
UniProt Q8N999, whole entry, looked up: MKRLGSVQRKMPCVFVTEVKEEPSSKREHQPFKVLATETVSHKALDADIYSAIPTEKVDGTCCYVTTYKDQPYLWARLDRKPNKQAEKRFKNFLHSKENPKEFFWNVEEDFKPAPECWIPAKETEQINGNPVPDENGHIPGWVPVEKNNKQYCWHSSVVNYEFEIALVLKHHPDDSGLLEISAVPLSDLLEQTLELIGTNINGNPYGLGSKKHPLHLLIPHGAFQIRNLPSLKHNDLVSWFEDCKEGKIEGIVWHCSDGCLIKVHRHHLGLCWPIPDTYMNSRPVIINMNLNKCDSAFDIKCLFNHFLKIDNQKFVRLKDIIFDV
UniProt Q96B23: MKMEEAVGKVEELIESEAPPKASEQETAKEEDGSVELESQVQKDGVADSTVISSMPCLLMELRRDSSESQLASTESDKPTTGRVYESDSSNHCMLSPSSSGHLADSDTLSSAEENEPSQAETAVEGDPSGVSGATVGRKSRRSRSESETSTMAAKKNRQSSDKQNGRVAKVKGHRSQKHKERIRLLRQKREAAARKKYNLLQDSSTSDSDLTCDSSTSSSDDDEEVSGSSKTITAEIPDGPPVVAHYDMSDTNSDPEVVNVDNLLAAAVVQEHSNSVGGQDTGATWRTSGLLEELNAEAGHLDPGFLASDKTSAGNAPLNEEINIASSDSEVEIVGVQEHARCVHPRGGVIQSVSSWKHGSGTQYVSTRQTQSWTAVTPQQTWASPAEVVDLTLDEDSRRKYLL

[1] = compound: C/C(=N\NC(=O)C1=CC(=CC=C1)S(=O)(=O)N2CCOCC2)/C3=C(C=CC(=C3)Cl)O
In short: as §1

[2] = compound: C1=CC(=CC=C1C2=NC3=C(N2)C=C(C=C3)C(=O)N)OC4=CC=C(C=C4)Cl
In short: as §1

[3] = compound: C1=CC2=C(C=CC(=C2)/C=C\3/C(=O)NC(=NCC4=CC=CS4)S3)N=C1
In short: as §1

[4] = compound: C1=CC2=NC=CN=C2C=C1/C=C/3\C(=O)NC(=O)S3
In short: as §1

[5] = compound: C1=CC=C(C=C1)C2=NC(=C(N2)C3=CC=NC=C3)C4=CC(=C(C=C4)Cl)O
In short: as §1

[6] = compound: C1=CC=C2C(=C1)C3=NNC4=CC=CC(=C43)C2=O
In short: as §1

[7] = compound: C1CCN(C1)C(=O)NC2=CC=CC(=C2)NC3=NC=C(C(=N3)NCCC4=CN=CN4)Br
In short: as §1

[8] = compound: C1CN(CCC1(CC2=CC=C(C=C2)Cl)N)C3=NC=NC4=C3C=CN4
In short: as §1

IRAK-1-4 Inhibitor I = compound: C1COCCN1CCN2C3=CC=CC=C3N=C2NC(=O)C4=CC(=CC=C4)[N+](=O)[O-] [IRAK-1-4 Inhibitor I]
In short: as §1

ibrutinib = compound: C=CC(=O)N1CCC[C@@H](n2nc(-c3ccc(Oc4ccccc4)cc3)c3c(N)ncnc32)C1 [ibrutinib]
In short: as §1

[9] = compound: CC(=O)c1cnc2ccc(-c3cc(Cl)c(O)c(Cl)c3)nc2c1N[C@H]1CC[C@H](CN(C)C)CC1
In short: as §1

ralimetinib = compound: CC(C)(C)Cn1c(N)nc2ccc(-c3[nH]c(C(C)(C)C)nc3-c3ccc(F)cc3)nc21 [ralimetinib]
In short: as §1

[10] = compound: CC(C)(O)CC(=O)NCCn1ccc2ncnc(Nc3ccc(Oc4cccc(C(F)(F)F)c4)c(Cl)c3)c21
In short: as §1

[11] = compound: CC(C)C1=C2N=C(C=C(N2N=C1)NCC3=CC=CC=C3)NCCCCCCN
In short: as §1

[12] = compound: CC1=C(C(CC(=O)N1)C2=CC=C(C=C2)C(F)(F)F)C(=O)NC3=C(C=C4C(=C3)C=NN4)F
In short: as §1

[13] = compound: CC1=C(C2=C(C=C1)C(=O)C3=CC=CC=C3N2CCCN)C
In short: as §1

[14] = compound: CC1=C(C=C(C=C1)NC(=O)C2=CC(=CC=C2)C(C)(C)C#N)NC3=CC4=C(C=C3)N=CN(C4=O)C
In short: as §1

[15] = compound: CC1=C(C=C(C=C1)NC(=O)C2=CC(=CC=C2)N(C)C)NC(=O)C3=CC=C(C=C3)O
In short: as §1

[16] = compound: CC1=CC=C(C=C1)SC2=C3C=C(SC3=CN=C2)C(=O)N
In short: as §1

Row | Target | log2 fold change (erlotinib) | log2 fold change [1] | log2 fold change [2] | log2 fold change [3] | log2 fold change [4] | log2 fold change [5] | log2 fold change [6] | log2 fold change [7] | log2 fold change [8] | log2 fold change (IRAK-1-4 Inhibitor I) | log2 fold change (ibrutinib) | log2 fold change [9] | log2 fold change (ralimetinib) | log2 fold change [10] | log2 fold change [11] | log2 fold change [12] | log2 fold change [13] | log2 fold change [14] | log2 fold change [15] | log2 fold change [16]
1 | CAAP1 (UniProt Q9H8G2) | inactive: 0.028 | inactive: -0.027 | inactive: 0.025 | inactive: -0.017 | inactive: -0.048 | inactive: 0.032 | inactive: -0.038 | inactive: 0.025 | inactive: 0.023 | inactive: -0.007 | inactive: -0.066 | inactive: -0.008 | inactive: 0.012 | inactive: -0.075 | inactive: 0.05 | inactive: 0.031 | inactive: -0.198 | inactive: -0.062 | inactive: -0.01 | inactive: -0.039
2 | C5orf51 (UniProt A6NDU8) | inactive: 0.024 | inactive: 0.004 | inactive: -0.008 | inactive: -0.026 | inactive: 0.04 | inactive: 0.007 | inactive: -0.038 | inactive: -0.027 | inactive: 0.055 | inactive: -0.025 | inactive: 0.052 | inactive: -0.008 | inactive: 0.001 | inactive: -0.027 | inactive: 0.014 | inactive: -0.005 | inactive: 0.004 | inactive: 0.042 | inactive: 0.042 | inactive: -0.001
3 | BUB1 (UniProt O43683) | inactive: 0.045 | inactive: -0.049 | inactive: -0.045 | inactive: -0.021 | inactive: 0.019 | inactive: 0.079 | inactive: -0.073 | inactive: -0.054 | inactive: -0.048 | inactive: -0.033 | inactive: -0.051 | inactive: 0.029 | inactive: 0.116 | inactive: -0.053 | inactive: 0.042 | inactive: -0.013 | inactive: -0.052 | inactive: 0.017 | inactive: 0.052 | inactive: -0.039
4 | CALR (UniProt P27797) | inactive: -0.005 | inactive: -0.002 | inactive: 0.013 | inactive: -0.001 | inactive: 0.006 | inactive: 0 | inactive: -0.006 | inactive: 0.027 | inactive: 0.002 | inactive: 0.003 | inactive: -0.021 | inactive: 0.004 | inactive: -0.02 | inactive: 0 | inactive: -0.017 | inactive: -0.004 | inactive: 0.015 | inactive: -0.046 | inactive: -0.007 | inactive: -0.001
5 | BYSL (UniProt Q13895) | inactive: -0.006 | inactive: -0.011 | inactive: -0.032 | inactive: 0.003 | inactive: 0.013 | inactive: -0.009 | inactive: -0.029 | inactive: 0.018 | inactive: -0.005 | inactive: 0 | inactive: -0.03 | inactive: 0.025 | inactive: 0.023 | inactive: -0.022 | inactive: -0.007 | inactive: -0.014 | inactive: -0.026 | inactive: -0.033 | inactive: 0.017 | inactive: 0.013
6 | C3 (UniProt P01024) | inactive: 0.016 | inactive: -0.031 | inactive: 0 | inactive: 0.004 | inactive: -0.036 | inactive: 0.151 | inactive: -0.061 | inactive: -0.042 | inactive: 0.01 | inactive: -0.014 | inactive: -0.047 | inactive: -0.011 | inactive: -0.077 | inactive: -0.032 | inactive: 0.865 | inactive: 0.243 | inactive: -0.004 | inactive: 0.01 | inactive: 0.026 | inactive: 0.001
7 | C12orf29 (UniProt Q8N999) | inactive: -0.003 | inactive: -0.009 | inactive: 0.016 | inactive: -0.026 | inactive: 0.04 | inactive: -0.001 | inactive: -0.009 | inactive: -0.061 | inactive: -0.023 | inactive: -0.032 | inactive: -0.027 | inactive: 0.052 | inactive: -0.021 | inactive: 0.003 | inactive: -0.001 | inactive: -0.04 | inactive: 0.005 | inactive: 0.018 | inactive: 0.032 | inactive: 0.006
8 | C18orf25 (UniProt Q96B23) | inactive: -0.025 | inactive: -0.315 | inactive: -0.086 | inactive: 0.015 | inactive: 0.001 | inactive: 0.003 | inactive: 0.004 | inactive: 0.005 | inactive: 0.029 | inactive: 0.114 | inactive: 0.114 | inactive: 0.026 | inactive: 0 | active: -0.276 | inactive: -0.038 | inactive: 0.073 | inactive: -0.008 | inactive: 0.04 | inactive: -0.091 | inactive: -0.065

Source: the supplement of paper PMC10849652
